The experiment addresses PTEN-Flag (UniProt P60484). As to the kind of experiment: co-IP; HEK293T transfected with the indicated plasmids for 24 h; lysis buffer 20 mM Tris pH 7.5, 150 mM NaCl, 1% Triton X-100, 1 mM EDTA; Flag beads or the indicated antibody with protein A/G agarose, 4 °C overnight; immunoblot; for PTEN-IRF3 also with myc-RNF138 co-expressed or in RNF138-KO cells. A general note: Immunoblotting shows a protein as a band on a membrane.

Protein sequences, listed by entry. Tags and fused reporters are not part of them.
UniProt P60484: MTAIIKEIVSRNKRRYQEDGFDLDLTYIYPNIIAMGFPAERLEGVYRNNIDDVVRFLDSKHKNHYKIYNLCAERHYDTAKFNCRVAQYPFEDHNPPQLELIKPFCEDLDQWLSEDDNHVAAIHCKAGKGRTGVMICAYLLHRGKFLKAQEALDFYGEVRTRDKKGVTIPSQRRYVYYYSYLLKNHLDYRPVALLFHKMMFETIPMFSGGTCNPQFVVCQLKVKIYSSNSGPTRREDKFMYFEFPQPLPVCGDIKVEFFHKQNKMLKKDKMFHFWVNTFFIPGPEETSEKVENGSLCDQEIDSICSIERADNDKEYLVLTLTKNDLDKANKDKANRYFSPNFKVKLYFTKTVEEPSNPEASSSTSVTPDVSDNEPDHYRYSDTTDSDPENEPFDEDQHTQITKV

Results are given in words; binding and its absence hold for the method and conditions named. In cells and extracts the contact can be indirect. Some binding calls cover weakened binding; strength is not graded here. Sequences can lack the tags named with a protein.

B1: myc-RNF138 (protein, UniProt Q8WVD3 1-245)
chain: MAEDLSAATSYTEDDFYCPVCQEVLKTPVRTTACQHVFCRKCFLTAMRESGAHCPLCRGNVTRRERACPERALDLENIMRKFSGSCRCCAKQIKFYRMRHHYKSCKKYQDEYGVSSIIPNFQISQDSVGNSNRSETSTSDNTETYQENTSSSGHPTFKCPLCQESNFTRQRLLDHCNSNHLFQIVPVTCPICVSLPWGDPSQITRNFVSHLNQRHQFDYGEFVNLQLDEETQYQTAVEESFQVNI
With B1, the binding result is recorded as “binds”.
